Here are results for 1 substance from doi:10.1101/2024.04.17.589979.

By UniProt entry, the sequences of proteins in these tests, tags left out. Where a name states a change or a piece, a line headed by the entry shows the natural chain unless it says otherwise.
UniProt P09038: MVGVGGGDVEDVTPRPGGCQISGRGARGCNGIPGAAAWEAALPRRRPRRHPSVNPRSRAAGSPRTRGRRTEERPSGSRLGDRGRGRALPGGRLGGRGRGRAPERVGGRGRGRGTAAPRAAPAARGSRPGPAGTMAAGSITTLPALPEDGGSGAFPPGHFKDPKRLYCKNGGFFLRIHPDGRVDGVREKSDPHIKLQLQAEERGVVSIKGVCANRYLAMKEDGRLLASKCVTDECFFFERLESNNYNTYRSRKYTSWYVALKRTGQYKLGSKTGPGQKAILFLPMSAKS
UniProt P08514: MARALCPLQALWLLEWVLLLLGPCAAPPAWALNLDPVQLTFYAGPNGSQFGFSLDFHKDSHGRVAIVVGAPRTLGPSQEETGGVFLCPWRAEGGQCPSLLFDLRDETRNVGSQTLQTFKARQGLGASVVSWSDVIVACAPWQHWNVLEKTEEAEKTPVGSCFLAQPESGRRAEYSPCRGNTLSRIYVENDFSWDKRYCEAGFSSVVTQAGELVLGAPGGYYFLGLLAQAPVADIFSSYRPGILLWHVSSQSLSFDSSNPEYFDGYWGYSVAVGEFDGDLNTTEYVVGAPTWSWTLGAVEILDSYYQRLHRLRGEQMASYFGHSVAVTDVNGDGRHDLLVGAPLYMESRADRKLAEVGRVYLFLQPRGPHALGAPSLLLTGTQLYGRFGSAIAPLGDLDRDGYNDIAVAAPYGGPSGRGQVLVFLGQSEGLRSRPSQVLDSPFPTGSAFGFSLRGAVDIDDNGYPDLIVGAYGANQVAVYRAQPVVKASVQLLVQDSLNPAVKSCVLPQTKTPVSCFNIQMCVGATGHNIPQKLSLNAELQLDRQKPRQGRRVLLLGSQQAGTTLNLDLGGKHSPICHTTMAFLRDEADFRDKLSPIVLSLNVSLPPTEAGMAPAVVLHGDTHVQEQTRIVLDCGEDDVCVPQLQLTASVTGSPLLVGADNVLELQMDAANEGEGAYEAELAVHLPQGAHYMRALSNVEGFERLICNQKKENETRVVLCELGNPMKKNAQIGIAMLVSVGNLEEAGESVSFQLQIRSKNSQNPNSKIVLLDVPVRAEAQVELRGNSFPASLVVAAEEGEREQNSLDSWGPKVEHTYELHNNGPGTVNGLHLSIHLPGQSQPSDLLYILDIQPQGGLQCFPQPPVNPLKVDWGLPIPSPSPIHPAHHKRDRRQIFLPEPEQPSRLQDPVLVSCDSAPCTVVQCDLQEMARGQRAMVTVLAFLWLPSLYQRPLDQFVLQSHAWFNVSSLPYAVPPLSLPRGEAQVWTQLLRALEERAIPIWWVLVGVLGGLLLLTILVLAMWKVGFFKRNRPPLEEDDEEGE

Read-outs that look alike come from different tables or passages of the source. No constants are given. Whether binding was seen depends on the method and setting. Binding can be weak; no strength is given.

The target in experiment [1] is FGF2 (wild type) (UniProt P09038). The experiment is described as follows: ELISA.
Experiment [2] has the same target. Put plainly: ELISA. This is another data set of the same source.

For “soluble recombinant integrin αIIbβ3 (ectodomain) (from UniProt P08514 32-993; P05106 27-718) (receptor)”, the binding entry in experiment [1] and in experiment [2] was “binds” throughout.
